Results from patent EP4582451A1.
These are yes or no findings as the source states them, for the method shown. Some entries that bind do so weakly or less than the wild type.

Amino acid sequences for entries named in this document (tags omitted). A change or cut given only in a name is not applied to a line headed by its entry.
UniProt P55899: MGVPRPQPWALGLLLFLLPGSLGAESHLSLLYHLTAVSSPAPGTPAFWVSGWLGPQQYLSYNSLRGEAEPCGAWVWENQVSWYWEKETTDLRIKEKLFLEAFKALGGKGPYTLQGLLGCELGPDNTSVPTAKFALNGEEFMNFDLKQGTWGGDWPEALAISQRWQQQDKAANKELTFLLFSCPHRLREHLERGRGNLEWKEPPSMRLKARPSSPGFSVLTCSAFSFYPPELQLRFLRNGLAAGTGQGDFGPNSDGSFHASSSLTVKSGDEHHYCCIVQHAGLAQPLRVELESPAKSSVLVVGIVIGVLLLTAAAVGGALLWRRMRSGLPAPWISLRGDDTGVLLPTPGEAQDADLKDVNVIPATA
UniProt P61769: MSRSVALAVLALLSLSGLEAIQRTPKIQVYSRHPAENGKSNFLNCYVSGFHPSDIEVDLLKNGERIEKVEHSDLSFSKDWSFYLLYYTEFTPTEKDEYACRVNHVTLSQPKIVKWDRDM

Molecular target: hFcRn-Avi (Biosystems, FCM-H82W7) (human (printed as hFcRn)) (UniProt P55899+P61769)
Assay: SPR (Biacore 8K+), hFcRn-Avi captured on SA chip, pH 6.0

binding	Binder
binds	hAb01_G4P_V1 (antibody, human IgG4 S228P, kappa) heavy: EVQLVESGGGLVKPGGSLRLSCAASGFTLSDYYIYWVRQAPGKGLEWVATISDAVIYTYYADSVKGRFTISRDNAKNSLYLQMNSLRAEDTAVYFCARAYGSSEVMDYWGQGTLVTVSSASTKGPSVFPLAPCSRSTSESTAALGCLVKDYFPEPVTVSWNSGALTSGVHTFPAVLQSSGLYSLSSVVTVPSSSLGTKTYTCNVDHKPSNTKVDKRVESKYGPPCPPCPAPEFLGGPSVFLFPPKPKDTLYITREPEVTCVVVDVSQEDPEVQFNWYVDGVEVHNAKTKPREEQFNSTYRVVSVLTVLHQDWLNGKEYKCKVSNKGLPSSIEKTISKAKGQPREPQVYTLPPSQEEMTKNQVSLTCLVKGFYPSDIAVEWESNGQPENNYKTTPPVLDSDGSFFLYSRLTVDKSRWQEGNVFSCSVMHEALHNHYTQKSLSLSLGK light: EIVLTQSPATLSLSPGERATLSCSASSSVSYMHWYQQKPGQAPKRWIYDTSKLASGVPARFSGSGSGTDYTLTISSLEPEDFAVYYCQQWSSNPWTFGGGTKLEIKRTVAAPSVFIFPPSDEQLKSGTASVVCLLNNFYPREAKVQWKVDNALQSGNSQESVTEQDSKDSTYSLSSTLTLSKADYEKHKVYACEVTHQGLSSPVTKSFNRGEC
binds	hAb01_G4P_V2 (antibody, human IgG4 S228P, kappa) heavy: EVQLVESGGGLVKPGGSLRLSCAASGFTLSDYYIYWVRQAPGKGLEWVATISDAVIYTYYADSVKGRFTISRDNAKNSLYLQMNSLRAEDTAVYFCARAYGSSEVMDYWGQGTLVTVSSASTKGPSVFPLAPCSRSTSESTAALGCLVKDYFPEPVTVSWNSGALTSGVHTFPAVLQSSGLYSLSSVVTVPSSSLGTKTYTCNVDHKPSNTKVDKRVESKYGPPCPPCPAPEFEGGPSVFLFPPKPKDTLYITREPEVTCVVVDVSQEDPEVQFNWYVDGVEVHNAKTKPREEQFNSTYRVVSVLTVLHQDWLNGKEYKCKVSNKGLPSSIEKTISKAKGQPREPQVYTLPPSQEEMTKNQVSLTCLVKGFYPSDIAVEWESNGQPENNYKTTPPVLDSDGSFFLYSRLTVDKSRWQEGNVFSCSVMHEALHNHYTQKSLSLSLGK light: EIVLTQSPATLSLSPGERATLSCSASSSVSYMHWYQQKPGQAPKRWIYDTSKLASGVPARFSGSGSGTDYTLTISSLEPEDFAVYYCQQWSSNPWTFGGGTKLEIKRTVAAPSVFIFPPSDEQLKSGTASVVCLLNNFYPREAKVQWKVDNALQSGNSQESVTEQDSKDSTYSLSSTLTLSKADYEKHKVYACEVTHQGLSSPVTKSFNRGEC
